Results deposited as PubChem BioAssay AID1259280 (Sanger Institute, 2017)
Aim: 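Essential kinases and drug-combination synergies in SNU407 cells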 (primary screen). Cells: human SNU407 colorectal cancer cells. Knock-down reagent: siRNA pool against human genes. Challenge: anchor drugs BYL719 at 1 µM, cetuximab at 5 µg/ml or trametinib at 10 nM, or DMSO vehicle alone; exposure time not given. Measured: 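Viability per well scaled to a non-targeting pool and averaged over replicates, with a robust z-score from controls and a synergy score per anchor drug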. Direction: viability z-score, no drug and viability vs control, no drug: higher = more cells survive the knock-down; synergy with trametinib and synergy with BYL719 and synergy with cetuximab: higher = stronger synergy of knock-down with drug. Active means: 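a knock-down counts as essential when its robust viability z-score without drug is below -3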. Calls: active = essential (knock-down alone kills cells); inactive = no change without drug.
This is one part, drawn at random, of 794 reagents. Of all reagents, 12 (1.5%) got an active call. 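Calls cover knock-down without drug only; synergy scores stand apart, values above 0.15 being treated as synergy.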 Viability is capped at 1. No sequences are given here. The record does not give: the amount of reagent, the time to read-out.

The opening 2 records as a preview:
gene,PubChem SID,"viability z-score, no drug","viability vs control, no drug (fraction of control)",synergy with trametinib,synergy with BYL719,synergy with cetuximab,Outcome
STAG2,SID152146952,0.465,0.967,-0.115,-0.00986,0.0133,inactive
POLR2B,SID134315545,-3.5,0.664,-0.0652,-0.0276,-0.0305,active

The list itself, from the first entry:
gene,PubChem SID,"viability z-score, no drug","viability vs control, no drug (fraction of control)",synergy with trametinib,synergy with BYL719,synergy with cetuximab,Outcome
STAG2,SID152146952,0.465,0.967,-0.115,-0.00986,0.0133,inactive
POLR2B,SID134315545,-3.5,0.664,-0.0652,-0.0276,-0.0305,active
TSSK2,SID56479050,0.9,1,0.0797,0.0905,0.148,inactive
CDKL1,SID56478790,-0.975,0.857,-0.0354,-0.105,-0.0659,inactive
RPS6KA3,SID152150758,0.901,1,0.0177,0.0813,0.0239,inactive
FYN,SID135620621,0.0136,0.932,0.0612,0.0949,-0.0527,inactive
TSSK1B,SID56478967,0.302,0.954,-0.0148,0.0212,-0.022,inactive
EPHA6,SID152153448,-2.25,0.759,0.162,0.114,0.117,inactive
HUNK,SID56478785,-1.28,0.834,0.0422,0.0947,0.0655,inactive
PTK2,SID56478542,-1.5,0.817,0.0232,0.101,0.0448,inactive
RIPK4,SID135620968,0.544,0.973,-0.00188,0.027,-0.0477,inactive
CDC42BPB,SID152149037,0.901,1,0.0544,-0.0464,-0.0418,inactive
ZAP70,SID56479064,0.292,0.953,0.0392,0.142,0.0276,inactive
TNK2,SID56478482,0.901,1,-0.0556,-0.0293,-0.0821,inactive
MARK2,SID152148068,0.316,0.955,-0.0557,-0.146,0.0389,inactive
VRK3,SID135620981,0.901,1,-0.0812,0.0108,-0.0886,inactive
RSKR,SID56478814,0.484,0.968,-0.0041,-0.031,-0.0464,inactive
SGK1,SID152156682,-0.143,0.92,-0.0711,-0.0223,-0.0425,inactive
PEAK1,SID152152075,-1.96,0.781,-0.084,-0.014,-0.0932,inactive
ADK,SID56478860,-1.12,0.846,-0.052,-0.0451,-0.0987,inactive
